Results are given in words; binding and its absence hold for the method and conditions named. In cells and extracts the contact can be indirect. Some entries that bind do so weakly or less than the wild type. Where a sequence is shown, tags or fusion partners need not be part of it.
Target: FLAG-tagged FAIM-S (Fas Apoptosis Inhibitory Molecule, short form) expressed in HLE B-3 cells (human) (UniProt Q9NVQ4)
Assay: co-IP; HLE B-3 cells, treated and harvested as the HeLa cells (FLAG-FAIM-S, cellular stress induction); anti-FLAG immunoprecipitation; Western blot for HSP27, αA- and αB-crystallin

- binding: binds
B1: αB-crystallin (protein, UniProt P02511 1-175)
chain: MDIAIHHPWIRRPFFPFHSPSRLFDQFFGEHLLESDLFPTSTSLSPFYLRPPSFLRAPSWFDTGLSEMRLEKDRFSVNLDVKHFSPEELKVKVLGDVIEVHGKHEERQDEHGFISREFHRKYRIPADVDPLTITSSLSSDGVLTVNGPRKQVSGPERTIPITREEKPAVTAAPKK

Reference: article PMC9570119
